The campaign covered roughly 2,100 compounds. About 590 (28%) were called active. Inconclusive results, whose numbers are uncertain, are shown with a selection of clear calls. The call rests on the fitted dose curve; in most records, active means well fitted inhibition curve with a large enough effect; inconclusive means small, poorly fitted or top-dose-only effect; inactive means flat fitted curve, though single readings scatter. Potencies of inconclusive entries are doubtful fits and often do not repeat.
What follows are molecules tested against DNA dC->dU-editing enzyme APOBEC-3F (Homo sapiens) (UniProt Q8IUX4) (assay: qHTS for inhibitors of Vif-A3F interactions: Cherry picks). Settings: HeLa A3F-eYFP + Vif (tagged APOBEC3F with the HIV-1 protein that degrades it), eYFP fluorescence, 24 h.
Summary of the method: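 Read-out: yellow fluorescence (ex 488 nm, em 500-530 nm) by laser-scanning cytometer after 24 h compound exposure, several concentrations, at 37 deg C. Cells: HeLa line stably co-expressing Vif and C-terminally eYFP-tagged A3F; MG132 served as positive control.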
Further: nearly all actives have a fitted effect of over 70% in size.
Potency means the concentration at half of the fitted maximal effect.
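Wherever max response is given: % of control where 0% means no effect; active compounds raise eYFP fluorescence by blocking Vif-driven A3F loss.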

Protein sequences, listed by entry. Tags and fused reporters are not part of them. Lines headed by an entry give the natural chain unless they say otherwise; changes in a name come on top.
UniProt Q8IUX4: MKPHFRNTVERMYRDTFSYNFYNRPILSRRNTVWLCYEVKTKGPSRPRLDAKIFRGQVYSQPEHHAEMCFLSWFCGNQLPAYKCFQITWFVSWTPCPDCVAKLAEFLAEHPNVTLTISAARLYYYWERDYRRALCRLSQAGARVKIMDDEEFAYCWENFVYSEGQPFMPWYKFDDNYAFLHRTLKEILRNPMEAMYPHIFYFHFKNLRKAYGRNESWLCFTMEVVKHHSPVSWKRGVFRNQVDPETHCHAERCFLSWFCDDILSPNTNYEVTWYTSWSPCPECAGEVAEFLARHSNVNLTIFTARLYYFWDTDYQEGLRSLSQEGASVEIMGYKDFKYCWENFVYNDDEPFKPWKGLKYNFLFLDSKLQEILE

Row | Structure (SMILES) | Potency | max response
1 | CC(=O)N/N=C/c1cc(C(C)(C)C)cc(/C=N/NC(C)=O)c1O | active: 23.1 µM | 
2 | COc1cc(/C=C2\SC(=S)N(CCC(=O)Nc3ccccn3)C2=O)cc(OC)c1OC | inconclusive: 29.1 µM [inhibitor, single point] | 
3 | COC(=O)CCC(=O)NC(=S)Nc1sc(C)c(C)c1C(N)=O | inconclusive: 1.12 µM [inhibitor, full curve] | 
4 | CCCC1=Nc2cc(C(=O)NCc3ccco3)ccc2Sc2ccccc21 | inconclusive: 1.58 µM [inhibitor, full curve, poor fit] | 
5 | O=c1[nH]ncc2c3ccccc3n(Cc3cccc(Cl)c3)c12 | inconclusive: 14.6 µM [inhibitor, single point] | 
6 | O=C(/C=C/c1ccco1)NC(=S)Nc1ccc(N2CCCC2)cc1 |  | inactive: -28%
7 | O=C(/C=C/c1ccc(Cl)cc1)c1ccc([N+](=O)[O-])o1 | inconclusive: 15.8 µM [inhibitor, single point] | 
8 | O=C(c1ccccc1F)n1c2c(c3ccccc31)CCCC2 | inconclusive: 12.5 µM [inhibitor, partial curve] | 
9 | Cc1ccc(-n2nc3c(N4CCCC(C(=O)NCc5ccccc5C)C4)nnc(C)c3c2C)cc1 (configuration not stated) | inconclusive: 29.1 µM [inhibitor, single point] | 
10 | COc1ccc(/C=N/NC(=O)c2cc(OC)c(OC)c(OC)c2)cc1CN1CCc2cc(OC)c(OC)cc2C1C (configuration not stated) | inconclusive: 14 µM [inhibitor, single point] | 
11 | O=S(=O)(Nc1ccc(C(O)(C(F)(F)F)C(F)(F)F)cc1)c1ccc(Cl)c2nonc12 | active: 12.5 µM | 
12 | N#C/C(=C/c1ccc(N2CCOCC2)o1)C(=O)NC1CCCCC1 | active: 16.4 µM | 
13 | COc1ccc(-c2csc(NC(=S)NC(=O)/C=C/c3ccco3)n2)cc1Br | active: 7.04 µM | 
14 | N#CC(C(=O)NCc1ccccc1)c1nc2ccccc2nc1N1CCCC1 (configuration not stated) |  | inactive: -25.3%
15 | O=C(N/N=C/c1ccc(Cl)cc1)c1cc(-c2cccnc2)nc2ccccc12 | inconclusive: 1.98 µM [inhibitor, full curve, poor fit] | 
16 | O=S(=O)(Nc1nc2ccccc2nc1Nc1cccc(S(=O)(=O)N2CCCCC2)c1)c1ccccc1 | inconclusive: 29.1 µM [inhibitor, single point] | 
17 | COc1ccc(S(=O)(=O)Nc2cccc3ccccc23)cc1 | inconclusive: 4.61 µM [inhibitor, full curve, poor fit] | 
18 | COc1cccc(Cn2c(-c3nonc3N)nc3ccccc32)c1 | inconclusive: 1.25 µM [inhibitor, full curve] | 
19 | Cc1cc(C)cc(NC(=O)/C=C/c2ccc([N+](=O)[O-])s2)c1 | active: 10.3 µM | 
20 | CCOc1cc(Br)cc(/C=C2\SC(=Nc3ccccc3)NC2=O)c1O |  | inactive: -27.7%
21 | O=[N+]([O-])c1ccccc1S(=O)(=O)Nc1ccc(-c2ccc(N3CCOCC3)nn2)cc1 |  | inactive: -8.95%
22 | COC(=O)/C(=C\Nc1ccc(Cl)cc1Cl)NC(=O)c1ccc(OC)cc1 | inconclusive: 1.98 µM [inhibitor, full curve, poor fit] | 
23 | COc1ccc(-c2cc(-c3nnc(COC(=O)c4ccncc4)o3)c3ccccc3n2)cc1OC |  | inactive: 2.21%

Ordered by formula weight (ascending): some entries from above.
Row | Structure (SMILES) | Potency | max response
19 | Cc1cc(C)cc(NC(=O)/C=C/c2ccc([N+](=O)[O-])s2)c1 | active: 10.3 µM | 
15 | O=C(N/N=C/c1ccc(Cl)cc1)c1cc(-c2cccnc2)nc2ccccc12 | inconclusive: 1.98 µM [inhibitor, full curve, poor fit] | 
13 | COc1ccc(-c2csc(NC(=S)NC(=O)/C=C/c3ccco3)n2)cc1Br | active: 7.04 µM | 

Carrying on:

Row | Structure (SMILES) | Potency | max response
24 | COc1cccc(/C=N/NC(=O)c2[nH]nc3c2CCc2ccccc2-3)c1 | inconclusive: 3.14 µM [inhibitor, full curve] | 
25 | Cc1c(C(=O)OC/C(O)=C(\C#N)c2nc3ccccc3[nH]2)oc2ccccc12 | inconclusive: 23.1 µM [inhibitor, single point] | 
26 | O=C(NCc1ccccc1)C(=O)NCC1COc2ccccc2O1 (configuration not stated) | inconclusive: 7.04 µM [inhibitor, partial curve] | 
27 | COc1ccc(C(=O)Nc2sc3c(c2C#N)CCN(C(C)=O)C3)cc1 | inconclusive: 12.5 µM [inhibitor, partial curve] | 
28 | Cc1cccc(NC(=O)N2CC=C(c3c[nH]c4ccccc34)CC2)c1C | inconclusive: 18.4 µM [inhibitor, single point] | 
29 | c1ccc2[nH]c(NN=C3CCCCCC3)nc2c1 |  | inactive: 2.02%
30 | COc1ccc(/C=N/NC(=O)c2cc3c(OC)ccc(OC)c3[nH]2)cc1O | inconclusive: 6.27 µM [inhibitor, partial curve] | 
31 | CC(C)(C)OC(=O)NC(Cc1ccccc1)C(=O)N1CCC(C(=O)NCC(=O)Nc2ccc(F)cc2)CC1 (configuration not stated) | inconclusive: 23.1 µM [inhibitor, single point] | 
32 | COc1ccc(OC)c(NC(=O)Cn2c(=O)n(-c3ccc(Cl)cc3)c(=O)c3c(C)c(C)sc32)c1 | active: 20.6 µM | 
33 | COc1cc(/C=C2/SC(=S)N(CC3CCCO3)C2=O)ccc1O (configuration not stated) | inconclusive: 18.4 µM [inhibitor, single point] | 
34 | Cc1cc(/C=C/c2ccnc3ccccc23)ccc1N | active: 14.6 µM | 
35 | Nc1ccc2nc(-c3ccccc3)c(-c3ccccc3)nc2c1 |  | inactive: -17.1%
36 | Cc1ccc(N=Cc2c(O)n(-c3nccs3)c(=O)c3ccccc23)c(C)c1 |  | inactive: -4.13%
37 | CCOC(=O)C1CCCN(C(=O)c2ccc3nc(-c4cccc(OC)c4)oc3c2)C1 (configuration not stated) |  | inactive: -18.5%
38 | COc1ccc(-c2cc(C(=O)N/N=C/c3sccc3C)c3ccccc3n2)c(OC)c1 | inconclusive: 7.04 µM [inhibitor, partial curve] | 
39 | CN(C)c1ccc(/C=C/c2ccnc3ccccc23)cc1C=O | inconclusive: 4.11 µM [inhibitor, full curve] | 
40 | CCCCn1c(N)c(N(Cc2ccccc2OC)C(=O)c2ccc([N+](=O)[O-])s2)c(=O)[nH]c1=O |  | inactive: -9.57%
41 | CCOC1=C2CN(S(=O)(=O)c3ccc(C)cc3)[C@H](c3cccc4ccccc34)C[C@H]2C(C#N)(C#N)C(C#N)(C#N)C1 |  | inactive: -5.21%
42 | O=[N+]([O-])c1ccc(/C=N/Nc2ccc3ccccc3c2)o1 | inconclusive: 7.9 µM [inhibitor, partial curve] | 
43 | Brc1ccc2c(c1)[C@H]1OCC[C@H]1[C@@H](c1cccs1)N2 | inconclusive: 25 µM [inhibitor, single point] | 
44 | COc1cc(SC)ccc1C(=O)N1CCN(c2ccccc2OC)CC1 | inconclusive: 5.59 µM [inhibitor, partial curve] | 
45 | Cc1[nH]c2ccccc2c1/C=C/c1ccc2ccccc2n1 | active: 7.31 µM | 
46 | O=C(NCc1ccc2c(c1)OCO2)c1cc([N+](=O)[O-])ccc1N1CCOCC1 | inconclusive: 4.44 µM [inhibitor, partial curve] | 

Row | Structure (SMILES) | Potency | max response
47 | CCCCN1C(=O)/C(=C2/Sc3ccccc3N2C)S/C1=N\c1ncn[nH]1 | active: 18.4 µM | 
48 | C=CCN1C(=O)/C(=C\C=C2\N(C)c3ccccc3C2(C)C)SC1=S | active: 0.461 µM | 
49 | O=S(=O)(Nc1nc2n(n1)C(c1ccccc1)C=C(c1ccc(Cl)cc1)N2)c1ccccc1 (configuration not stated) |  | inactive: -9.71%
50 | NC(=O)CC(NC(=O)Cc1ccc(Br)cc1)c1ccc(NCc2ccc(F)cc2)c([N+](=O)[O-])c1 (configuration not stated) | inconclusive: 29.1 µM [inhibitor, single point] | 
51 | Cc1ccc(C(=O)NC(=C(Cl)Cl)S(=O)(=O)c2ccc(Cl)cc2)cc1 | inconclusive: 15.8 µM [inhibitor, single point] | 
52 | N#CC1=C(N)C(C#N)(C#N)[C@H](c2ccoc2)[C@H]2CN(Cc3ccccc3)CC=C12 | inconclusive: 1.98 µM [inhibitor, full curve] | 
53 | Cc1ccc2nc(/C(C#N)=C/c3ccc(-c4cccc(Cl)c4)o3)[nH]c2c1 | active: 4.61 µM | 
54 | O=C(O)c1ccc(NS(=O)(=O)c2cccc(C(=O)Nc3ccccc3[N+](=O)[O-])c2)cc1 | inconclusive: 12.5 µM [inhibitor, single point] | 
55 | Cc1c(C(=O)N/N=C/C(C)C)[nH]c2c([N+](=O)[O-])cccc12 | inconclusive: 19.8 µM [inhibitor, single point] | 
56 | Cc1sc2ncn(CC(=O)NCc3ccccc3)c(=O)c2c1C |  | inactive: -23.3%
57 | CNc1cncc(-c2cc(C)c(O)c(C)c2)n1 | inconclusive: 3.53 µM [inhibitor, partial curve] | 
58 | Cc1ccc(CNC(=O)c2cccc(Nc3nc4ccccc4n4nnnc34)c2)cc1 | inconclusive: 10.3 µM [inhibitor, partial curve] | 
59 | Cc1ccc(C(=O)CSc2nc(-c3ccccc3)ccc2C#N)cc1 | inconclusive: 23.1 µM [inhibitor, partial curve] | 
60 | Cc1cccc(/C=C/C(=O)c2ccc([N+](=O)[O-])o2)c1 | inconclusive: 7.04 µM [inhibitor, partial curve] | 
61 | COc1ccc(NC(=O)C(NC(=O)/C=C\c2ccc3c(c2)OCO3)c2ccccc2)cc1 (configuration not stated) | inconclusive: 14.6 µM [inhibitor, partial curve] | 
62 | COCCCNC(=S)N/N=C/c1cccc(OC)c1O |  | inactive: -1.71%
63 | O=C1/C(=C/c2c[nH]c3ccccc23)CCC/C1=C\c1c[nH]c2ccccc12 | active: 16.4 µM | 
64 | O=C1OC(Nc2nc(-c3ccc(F)cc3)cs2)c2ccccc21 (configuration not stated) | inconclusive: 14 µM [inhibitor, single point] | 
65 | N#Cc1c(-c2ccccc2F)cc(C2CC2)nc1SCC(=O)c1cccs1 | active: 17.7 µM | 
66 | CC(=O)Nc1cccc(-c2cc(NC=O)c3ncc(-c4ccc(F)c(Cl)c4)n3c2)c1 | inconclusive: 15.8 µM [inhibitor, partial curve] | 
67 | CCc1ccc2nc(SCC(=O)N3CC(=O)Nc4ccccc43)c(C#N)cc2c1 | active: 15.8 µM | 
